Values quoted from earlier work, collected in patent US8404286B2, “Use of extracts or of extract compounds from Piper cubeba L. as active components in a medicament for the treatment of cancer” (Viridis Pharmaceutical Limited, priority 2007, dated 2013).
At least one structure is not confirmed: it was looked up by name or label, or the drawing left a doubt.

System: MCF-7 cells
Conditions: cited from earlier work

C[C@]12CC[C@@H]3c4ccc(O)cc4CC[C@H]3[C@@H]1CC[C@@H]2O [estradiol]
effect of estradiol on the DNA synthesis of breast cancer cells: enhances the DNA synthesis of breast cancer cells
